# Experimental data from US20230399409A1.
# These are yes or no findings as the source states them, for the method shown. Binding calls can cover weak binding; strength is not graded here.
# Experiments:
# monkey IL-36R (monkey) [1] = assay: flow cytometry on CHO-K1 cells expressing monkey IL-36R
# monkey IL-36R (monkey) [2] = assay: flow cytometry on CHO-K1 cells expressing monkey IL-36R (CHO-K1-cyIL-36R), Median FL2
binder,measurement,setting,value
"humanized anti-IL-36R antibody 900527 (antibody, V domains shown) VH: QVQLVQSGAEVKKPGASVKVSCKASGYTFTSSWMHWAKQAPGQGLEWIGEIHPNSAKTNYNQKFQGRVTMTRDTSISTAYMELSRLRSDDTAVYYCARVDYGKPWFAYWGQGTLVTVSS VL: QIVLTQSPGTLSLSPGERATLSCRASSSVSSSYLHWYQQKPGQAPRLWIYSTSSRATGIPDRFSGSGSGTDFTLTISRLEPEDFATYYCQQFQSSPLTFGQGTKLEIK",binding,monkey IL-36R (monkey) [1],binds
same,binding,monkey IL-36R (monkey) [2],binds
